Literature values as cited in US20240156825A1.
Structures were worked out from names or drawings and are uncertain.

Chains of the proteins cited; added tags and fusions are not shown. Residues count along the entry.
UniProt P35968, 20-1356 limits assumed: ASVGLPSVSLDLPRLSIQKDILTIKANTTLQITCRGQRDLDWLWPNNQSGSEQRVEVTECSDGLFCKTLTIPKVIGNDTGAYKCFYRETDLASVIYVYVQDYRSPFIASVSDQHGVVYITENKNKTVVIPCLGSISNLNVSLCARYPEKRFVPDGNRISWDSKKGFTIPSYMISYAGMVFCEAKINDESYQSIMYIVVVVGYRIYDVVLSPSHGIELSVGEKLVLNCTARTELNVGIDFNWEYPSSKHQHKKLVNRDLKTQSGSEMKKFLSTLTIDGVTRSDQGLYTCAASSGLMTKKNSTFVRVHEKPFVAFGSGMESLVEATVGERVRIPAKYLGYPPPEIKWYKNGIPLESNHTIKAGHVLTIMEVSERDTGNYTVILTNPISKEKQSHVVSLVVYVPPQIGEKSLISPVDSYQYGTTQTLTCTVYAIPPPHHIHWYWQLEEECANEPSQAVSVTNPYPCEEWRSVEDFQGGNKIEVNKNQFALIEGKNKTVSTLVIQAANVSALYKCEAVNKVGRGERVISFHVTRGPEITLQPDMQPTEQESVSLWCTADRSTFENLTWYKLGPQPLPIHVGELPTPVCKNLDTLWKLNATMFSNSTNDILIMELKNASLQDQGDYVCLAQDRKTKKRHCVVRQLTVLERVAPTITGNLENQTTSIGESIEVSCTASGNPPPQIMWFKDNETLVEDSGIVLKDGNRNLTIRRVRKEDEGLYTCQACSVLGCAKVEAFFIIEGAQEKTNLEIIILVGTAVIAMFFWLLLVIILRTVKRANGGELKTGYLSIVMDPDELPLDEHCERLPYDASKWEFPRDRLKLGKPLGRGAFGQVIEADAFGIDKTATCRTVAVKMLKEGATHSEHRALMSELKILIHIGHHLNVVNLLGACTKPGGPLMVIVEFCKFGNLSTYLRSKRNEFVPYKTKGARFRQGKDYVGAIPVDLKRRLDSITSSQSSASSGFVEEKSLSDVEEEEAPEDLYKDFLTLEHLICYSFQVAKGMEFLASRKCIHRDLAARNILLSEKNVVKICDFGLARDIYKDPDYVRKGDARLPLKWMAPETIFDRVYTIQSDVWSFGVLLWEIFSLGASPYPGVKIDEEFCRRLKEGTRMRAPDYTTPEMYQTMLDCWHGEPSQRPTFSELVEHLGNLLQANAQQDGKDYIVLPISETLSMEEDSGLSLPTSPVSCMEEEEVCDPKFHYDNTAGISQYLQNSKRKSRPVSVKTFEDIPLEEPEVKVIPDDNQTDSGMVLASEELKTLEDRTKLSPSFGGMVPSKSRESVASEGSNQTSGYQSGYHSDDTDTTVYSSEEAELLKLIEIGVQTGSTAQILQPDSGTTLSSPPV

What was measured:
any gene target = conditions: read-out: Min IC50_μM; next lowest IC50 value to any gene target; cited from earlier work
VEGFR2 = VEGFR2 (Homo sapiens, UniProt P35968); conditions: read-out: VEGFR2 IC50_μM; reported IC50 to VEGFR2; cited from earlier work

Structure (SMILES)	IC50 (any gene target) [nM]	IC50 (VEGFR2) [nM]
COc1nc(Nc2ccc(-c3nc4ccccc4s3)c(OC)c2)c2nc[nH]c2n1	2100	
COc1cc2nccc(Oc3ccc4c(C(=O)NCC(F)(F)F)cccc4c3)c2cc1OC [compound 24823250]	62	15
